From a melanoma drug combination screen (doi:10.1371/journal.pone.0140310); values rounded.

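Human melanoma cells were exposed to a pair of drugs for 72 h in 1,536-well plates and read by automated microscopy after fixing and staining. Values are the share of nuclei positive for cleaved PARP as a percentage of the same share in the DMSO control: 100 is the control level, higher means more apoptosis. Concentrations were fixed for each drug; these are the higher of two levels. The file gives one value for each pair and line, without errors, so small differences may be noise. Basal and induced levels differ widely between cell lines.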
This is part of the screen, not chosen by result.
A dash means that no value is listed here.

Drug key:
vatalanib (10000 nM): Clc1ccc(Nc2nnc(Cc3ccncc3)c3ccccc23)cc1
PLX4720 (400 nM): CCCS(=O)(=O)Nc1ccc(F)c(C(=O)c2c[nH]c3ncc(Cl)cc23)c1F
vismodegib (5000 nM): CS(=O)(=O)c1ccc(C(=O)Nc2ccc(Cl)c(-c3ccccn3)c2)c(Cl)c1
SNS-032 (50 nM): CC(C)(C)c1cnc(CSc2cnc(NC(=O)C3CCNCC3)s2)o1
KU-0063794 (100 nM): COc1ccc(-c2ccc3c(N4CCOCC4)nc(N4C[C@@H](C)O[C@@H](C)C4)nc3n2)cc1CO
PF-04217903 (5000 nM): OCCn1cc(-c2cnc3nnn(Cc4ccc5ncccc5c4)c3n2)cn1
IMD-0354 (80 nM): O=C(Nc1cc(C(F)(F)F)cc(C(F)(F)F)c1)c1cc(Cl)ccc1O
tanespimycin (10 nM): C=CCNC1=C2C[C@@H](C)C[C@H](OC)[C@H](O)[C@@H](C)/C=C(\C)[C@H](OC(N)=O)[C@@H](OC)/C=C\C=C(/C)C(=O)NC(=CC1=O)C2=O
decitabine (500 nM): Nc1ncn([C@H]2C[C@H](O)[C@@H](CO)O2)c(=O)n1
SU6656 (2000 nM): CN(C)S(=O)(=O)c1ccc2c(c1)/C(=C/c1cc3c([nH]1)CCCC3)C(=O)N2
fingolimod (10000 nM): CCCCCCCCc1ccc(CCC(N)(CO)CO)cc1
sorafenib (2000 nM): CNC(=O)c1cc(Oc2ccc(NC(=O)Nc3ccc(Cl)c(C(F)(F)F)c3)cc2)ccn1
lenalidomide (5000 nM): Nc1cccc2c1CN(C1CCC(=O)NC1=O)C2=O (stereo not given)

| # | Drugs | SK-MEL-5 | MZ2-MEL | UACC-257 | G-361 | WM3619 | COLO 800 | LOX IMVI | C32 | IST-MEL1 | A375 |
|---|---|---|---|---|---|---|---|---|---|---|---|
| 1 | fingolimod + IMD-0354 | 81.2 | 13200 | 130 | 3640 | 4530 | 368 | 506 | 414 | 322 | 191 |
| 2 | lenalidomide + SNS-032 | 268 | 156 | 66.4 | 113 | 116 | 236 | 170 | 109 | 104 | - |
| 3 | decitabine + SNS-032 | 1410 | 219 | 112 | 177 | 145 | 99.6 | 113 | 298 | 176 | - |
| 4 | vismodegib + sorafenib | 172 | 105 | 84.5 | 50.1 | 108 | 36.6 | 65.7 | 34.8 | 130 | 39.8 |
| 5 | vismodegib + vatalanib | 266 | 138 | 117 | 84.2 | 198 | 133 | 249 | 162 | 96.2 | 32.3 |
| 6 | tanespimycin + vismodegib | 66.0 | 58.6 | 25.2 | 99.0 | 156 | 57.6 | 87.7 | 806 | 343 | 118 |
| 7 | PF-04217903 + SNS-032 | 141 | 177 | 153 | 139 | 164 | 130 | 37.7 | 62.0 | 36.0 | - |
| 8 | PF-04217903 + sorafenib | 58.9 | 202 | 91.0 | 30.9 | 113 | 57.7 | 56.0 | 107 | 78.7 | - |
| 9 | SNS-032 + fingolimod | 273 | - | 268 | - | 2730 | 347 | 1920 | 1620 | 2290 | - |
| 10 | SU6656 + vatalanib | 148 | 738 | 59.5 | 650 | 205 | 355 | 134 | 681 | 208 | - |
| 11 | fingolimod + PLX4720 | 731 | 9430 | 31.3 | 4010 | 2280 | 428 | 394 | 911 | 312 | 47.0 |
| 12 | decitabine + vismodegib | 122 | 125 | 43.9 | 57.1 | 125 | 78.0 | 442 | 88.9 | 264 | 42.6 |
| 13 | SU6656 + fingolimod | 377 | 12300 | 128 | 14700 | 644 | 183 | 721 | 2680 | 1050 | - |
| 14 | decitabine + lenalidomide | 163 | 227 | 30.5 | 176 | 87.2 | 90.5 | 80.2 | 40.6 | 62.4 | 66.9 |
| 15 | PF-04217903 + PLX4720 | 262 | 69.2 | 69.3 | 174 | 133 | 96.7 | 99.8 | 33.3 | 77.5 | - |
| 16 | SNS-032 + SU6656 | 145 | 298 | 43.3 | 237 | 120 | 299 | 300 | 128 | 118 | - |
| 17 | PLX4720 + sorafenib | 369 | 92.5 | 44.3 | 291 | 97.9 | 254 | 289 | 208 | 87.4 | 246 |
| 18 | PLX4720 + tanespimycin | 78.7 | 90.4 | 23.6 | 228 | 150 | 183 | 29.9 | 1420 | 1070 | 219 |
| 19 | KU-0063794 + IMD-0354 | 152 | 46.8 | 66.9 | 141 | 134 | 160 | 81.5 | 87.4 | 154 | 129 |
| 20 | vatalanib + lenalidomide | 66.8 | 51.7 | 57.3 | 64.9 | 122 | 257 | 172 | 202 | 187 | 76.9 |
| 21 | PLX4720 + SU6656 | 166 | 208 | 334 | 76.1 | 128 | 105 | 96.9 | 83.8 | 156 | - |
| 22 | PF-04217903 + IMD-0354 | 132 | 150 | 76.3 | 147 | 82.5 | 74.2 | 23.0 | 65.1 | 50.2 | - |
| 23 | PF-04217903 + lenalidomide | 241 | 52.3 | 41.8 | 173 | 89.1 | 77.5 | 33.1 | 87.7 | 73.0 | - |
| 24 | SU6656 + vismodegib | 82.0 | 328 | 35.8 | 172 | 101 | 165 | 31.7 | 260 | 64.7 | - |
| 25 | PF-04217903 + KU-0063794 | 9000 | 50.0 | 49.1 | 53.4 | 164 | 21.8 | 448 | 484 | 116 | 258 |
| 26 | tanespimycin + sorafenib | 87.0 | 162 | 86.6 | 251 | 138 | 72.9 | 99.6 | 1690 | 127 | 72.9 |
| 27 | vismodegib + lenalidomide | 169 | 91.0 | 64.9 | 52.7 | 92.0 | 168 | 28.3 | 50.7 | 79.0 | 33.4 |

For reference, 3 entries once more:

| Drugs | SK-MEL-5 | MZ2-MEL | UACC-257 | G-361 | WM3619 | COLO 800 | LOX IMVI | C32 | IST-MEL1 | A375 |
|---|---|---|---|---|---|---|---|---|---|---|
| PLX4720 + tanespimycin | 78.7 | 90.4 | 23.6 | 228 | 150 | 183 | 29.9 | 1420 | 1070 | 219 |
| SNS-032 + fingolimod | 273 | - | 268 | - | 2730 | 347 | 1920 | 1620 | 2290 | - |
| SU6656 + fingolimod | 377 | 12300 | 128 | 14700 | 644 | 183 | 721 | 2680 | 1050 | - |